# Experimental data: the supplement of paper PMC11732987, “Enantioselective OTUD7B fragment discovery through chemoproteomics screening and high-throughput optimisation” (Communications Chemistry, 2025)
# Some of the results follow. The data scatter; read single values as rough.
# Molecular target: T1, ZFYVE16 C895 (UniProt Q7Z3T8)
# T1 sequence (whole entry): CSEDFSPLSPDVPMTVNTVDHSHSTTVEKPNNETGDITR
# Experiment: log2 mean competition ratio of IA-DTB cysteine labelling (DMSO/compound) (log2 ratio); higher = stronger cysteine engagement by compound
# Settings: 50 µM; treatment time: 4 h; cell line lysate: HEK293T
# Protocol: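 IA-DTB competitive cysteine chemoproteomics in HEK293T RIPA lysate. Lysates were treated with compound 29 or 30 at 50 or 200 µM for 4 h, then IA-DTB (500 µM, 1 h), trypsin-digested, NeutrAvidin-enriched and analysed by diaPASEF. Competition ratio = intensity DMSO / intensity compound (n=4 treated, n=64 DMSO); binding: mean log2 CR ≥ 1 and p ≤ 0.05 plus QC filters. Target is the cysteine site.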
row,Structure (SMILES),log2 mean competition ratio
1,O=C(CCl)N[C@@H]1CCCc2ccccc21,-0.242
2,O=C(CCl)N[C@H]1CCCc2ccccc21,0.414

# Same assay, conditions: 200 µM; treatment time: 4 h; cell line lysate: HEK293T
row,Structure (SMILES),log2 mean competition ratio
1,O=C(CCl)N[C@@H]1CCCc2ccccc21,-0.264
2,O=C(CCl)N[C@H]1CCCc2ccccc21,-0.312
